Source: PubChem BioAssay AID2685 (National Center for Advancing Translational Sciences (NCATS), 2010)
The other results are listed elsewhere or left out. The main result of the screen is listed elsewhere. These columns were measured beside it and carry no call. Compounds called inactive in the main read-out are mostly missing here. The note in brackets gives the kind of curve behind each potency; many fits are weak.

Assay: qHTS Assay for Lipid Storage Modulators in Drosophila S3 Cells;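 for cell number change: cells counted by Cell Tracker Red CMTPX staining in the red channel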
Settings: BODIPY lipid droplet fluorescence, 18-24 h; for cell number change: measured here: cell count max response, cells fed with added oleic acid
Summary of the method: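 Laser-scanning cytometry quantifies lipid droplet accumulation (500–530 nm total intensity; droplet/cell object ratio) in oleic acid-fed (400 uM added) Drosophila S3 cells treated with a concentration series. 20 uM Triacsin C defined 100% inhibition.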

[1] = measured here: lipid fluorescence (Fed channel) AC50, cells fed with added oleic acid
[2] = measured here: cell number channel AC50, cells fed with added oleic acid

Structure (SMILES): CC(C)CN(C(=O)CCNC(=O)c1ccc(Cl)cc1)c1c(N)n(CC(C)C)c(=O)[nH]c1=O
- cell number change: 2.58%
- AC50 [1]: 0.731 µM [falling, full curve, poor fit]

Structure (SMILES): COc1ccc(-c2cn3c(C)c(C(=O)N4CCc5ccccc5C4)sc3n2)cc1
- cell number change: -40.9%
- AC50 [2]: 6.51 µM [falling, full curve, poor fit]

Structure (SMILES): CC1=C(C(=O)N2CCOCC2)C(c2cccc3ccccc23)NC(=S)N1 (configuration not stated)
- cell number change: 25.2%
- AC50 [1]: 0.82 µM [rising, full curve, poor fit]

Structure (SMILES): CCOC(=O)C1=C(N)c2ccccc2CC1C(C)C (configuration not stated)
- cell number change: -92.5%
- AC50 [2]: 29.1 µM [falling, single point]

Structure (SMILES): COc1ccc(-n2nc(C(=O)NCC(=O)Nc3cccc(Cl)c3)c3ccccc3c2=O)cc1
- cell number change: 19.7%
- AC50 [1]: 2.91 µM [falling, full curve, poor fit]

Structure (SMILES): COc1ccc(NS(=O)(=O)c2ccc(NC(=O)c3ccccn3)cc2)cc1
- cell number change: 22.5%
- AC50 [1]: 0.731 µM [rising, full curve]

Structure (SMILES): Cc1cc(C)c(C)c(S(=O)(=O)N2CCN(C(=O)c3ccccc3OCc3c(C)noc3C)CC2)c1C
- cell number change: -9.46%
- AC50 [2]: 0.0231 µM [falling, full curve, poor fit]

Structure (SMILES): CCCCCCCCC/C(=N\O)c1ccccn1
- cell number change: -29.4%
- AC50 [1]: 29.1 µM [falling, single point]

Structure (SMILES): Cc1ccc(CNc2nc3ccccc3s2)s1
- cell number change: -0.926%

Structure (SMILES): CC(=O)N1CCOc2ccc(S(=O)(=O)NCc3ccc(F)cc3)cc21
- cell number change: 5.11%
- AC50 [1]: 0.731 µM [rising, single point]

Structure (SMILES): O=C(CCCN1C(=O)S/C(=C\C=C\c2ccccc2)C1=O)Nc1ccc(C(=O)O)cc1
- cell number change: 14.1%

Structure (SMILES): O=C(O)c1ccccc1Sc1ccccc1S(=O)(=O)NC1CCCCC1
- cell number change: -31.2%
- AC50 [2]: 0.103 µM [falling, full curve, poor fit]
- AC50 [1]: 0.82 µM [falling, full curve, poor fit]

Structure (SMILES): CCCN1CCN(S(=O)(=O)c2ccc3c(c2)NC(=O)C(C)C(=O)N3)CC1 (configuration not stated)
- cell number change: 19%

Structure (SMILES): CN(C)CCNc1oc(-c2ccccc2F)nc1C#N
- cell number change: -39.2%
- AC50 [2]: 16.4 µM [falling, partial curve, poor fit]
- AC50 [1]: 23.1 µM [falling, partial curve, poor fit]

Structure (SMILES): O=C(Cc1ccc(Cl)cc1)Nc1cccc(C(=O)Nc2ccccc2C(=O)O)c1
- cell number change: 4.72%
- AC50 [1]: 20.6 µM [falling, partial curve]

Structure (SMILES): O=C(CCCOc1ccccc1)NCCc1nc2ccccc2[nH]1
- cell number change: -21.9%
- AC50 [1]: 0.0116 µM [falling, full curve]

Structure (SMILES): Cc1ccc(OCC(=O)NC2CCCC(C)C2C)c([N+](=O)[O-])n1 (configuration not stated)
- cell number change: -8.84%
- AC50 [1]: 0.291 µM [falling, partial curve, poor fit]

Structure (SMILES): COc1ccc(CCNc2nc(C)cc(C)n2)cc1OC
- cell number change: 30.4%

Structure (SMILES): C/C(CC(=O)Nc1ccc(N(C)C)cc1)=N\NC(=O)Cc1csc(N)n1
- cell number change: 7.08%
- AC50 [1]: 9.2 µM [rising, partial curve]

Structure (SMILES): COc1cc(/C=N/NC(=O)c2ccc(F)cc2)ccc1OC(=O)c1ccco1
- cell number change: -1.02%
- AC50 [1]: 2.91 µM [falling, single point]

Structure (SMILES): NC(=O)c1ccc(NC(=O)Nc2ccc3c(c2)OCO3)cc1
- cell number change: 4.99%
- AC50 [1]: 4.61 µM [rising, full curve, poor fit]

Structure (SMILES): CCOc1ccccc1C(=O)NC(C(=O)N(C)Cc1ccc2c(c1)OCO2)C(C)C (configuration not stated)
- cell number change: 16.2%
- AC50 [1]: 9.2 µM [rising, partial curve, poor fit]

Structure (SMILES): O=C(CN(C(=O)c1csnn1)c1ccc(F)c(Cl)c1)NC1CCCCC1
- cell number change: -3.85%

Structure (SMILES): Cc1c(NC(=O)c2ccc3c(c2)C(=O)N(CC2CCCO2)C3=O)cccc1C(=O)O (configuration not stated)
- cell number change: -111%
- AC50 [2]: 29.1 µM [falling, single point]

Structure (SMILES): CCOC(=O)C1=C(COC(=O)/C=C/c2ccc([N+](=O)[O-])cc2)NC(=O)NC1C (configuration not stated)
- cell number change: 36.6%
- AC50 [2]: 29.1 µM [rising, single point]
- AC50 [1]: 32.6 µM [rising, single point]

Structure (SMILES): O=C(/C=C/c1cccs1)Nc1sc2c(c1C(=O)O)CCCC2
- cell number change: 22.6%

Structure (SMILES): O=C(OCC(=O)N1CCCC1=O)C1CCN(S(=O)(=O)c2ccc(Cl)c(C(F)(F)F)c2)CC1
- cell number change: -46.4%
- AC50 [2]: 13 µM [falling, partial curve, poor fit]
- AC50 [1]: 11.6 µM [falling, partial curve]

Structure (SMILES): O=C(CCCOc1cccc(Br)c1)NCCOc1ccccc1
- cell number change: 8.33%
- AC50 [1]: 0.00517 µM [rising, full curve, poor fit]

Structure (SMILES): O=C(N/N=C(\Cc1ncc[nH]1)c1ccccc1)c1cccnc1
- AC50 [2]: 0.58 µM [rising, single point]
- AC50 [1]: 25.9 µM [rising, single point]

Structure (SMILES): Cc1cc(OCC(=O)N2CCC(C(=O)O)CC2)c2c(C)cc(=O)oc2c1
- cell number change: 13%
- AC50 [1]: 0.058 µM [rising, full curve, poor fit]

Structure (SMILES): COc1ccc(C(=O)O)cc1S(=O)(=O)NCCCN1CCCC1=O
- cell number change: 7.95%
- AC50 [1]: 25.9 µM [falling, single point]

Structure (SMILES): O=C1NC(=O)/C(=C/c2cc3c(cc2Br)OCO3)S1
- cell number change: -19.6%
- AC50 [1]: 29.1 µM [falling, single point]

Structure (SMILES): COc1cc(NC(=O)Cc2ccccc2)cc(OC)c1
- cell number change: 9.03%

Structure (SMILES): CCOc1ccc2oc(C(=O)NCC(C)(C)CN(C)C)c(C)c2c1
- cell number change: 39.8%
- AC50 [2]: 29.1 µM [rising, single point]

Structure (SMILES): C=CCN1C(=O)c2ccc(C(=O)N(C)CC(=O)Nc3ccc(Br)cc3C)cc2C1=O
- cell number change: 38.1%
- AC50 [2]: 0.731 µM [rising, full curve]
- AC50 [1]: 2.31 µM [rising, partial curve]

Structure (SMILES): CCn1c(SCC(=O)NC2CC2)nnc1-c1ccccc1OC
- AC50 [1]: 29.1 µM [rising, single point]

Structure (SMILES): CC1CN(CCOCCSc2ccc(Cl)cc2)CC(C)O1 (configuration not stated)
- cell number change: 7.62%
- AC50 [1]: 29.1 µM [falling, single point]

Structure (SMILES): COc1cc(=O)[nH]c(SC(C)C(=O)Nc2ccc3ccccc3c2)n1 (configuration not stated)
- cell number change: 20.9%

Structure (SMILES): CSc1ccc(Cl)c(C(=O)NCC(C)C)c1
- cell number change: 6.2%

Structure (SMILES): O=C(O)COc1cccc2nsnc12
- AC50 [2]: 1.64 µM [rising, partial curve]

Structure (SMILES): O=C(NCCCNc1ccc([N+](=O)[O-])cc1)C(F)(F)F
- cell number change: -29%
- AC50 [2]: 0.259 µM [falling, full curve, poor fit]
- AC50 [1]: 0.326 µM [falling, full curve]

Structure (SMILES): CC(Oc1ccc2c(c1)oc(=O)c1ccccc12)C(=O)NCCN1CCOCC1 (configuration not stated)
- cell number change: -0.895%

Structure (SMILES): O=C(NCc1ccccn1)Nc1ccccc1Cl
- cell number change: 14.5%

Structure (SMILES): CCc1nccn1CCC(=O)NC1CC(C)(C)Cc2c1cnn2-c1ccc(OC)cc1 (configuration not stated)
- cell number change: 52.8%
- AC50 [2]: 29.1 µM [rising, single point]
- AC50 [1]: 29.1 µM [rising, single point]

Structure (SMILES): N#CCC(=O)N/N=C/c1ccc(OS(=O)(=O)c2ccccc2)cc1
- cell number change: 73%
- AC50 [2]: 2.31 µM [rising, full curve]
- AC50 [1]: 2.06 µM [rising, partial curve]

Structure (SMILES): C/C(CC(=O)NCCCN1CCOCC1)=N\NC(=O)COc1ccc(Cl)cc1
- cell number change: 6.61%
- AC50 [1]: 32.6 µM [rising, single point]

Structure (SMILES): Nc1ccccc1Nc1c(F)c(F)nc(F)c1Cl
- cell number change: 60.4%
- AC50 [2]: 29.1 µM [rising, single point]

Structure (SMILES): Nc1c(C(=O)Nc2nccs2)sc2nc(-c3cccs3)cc(C(F)(F)F)c12
- cell number change: -72%
- AC50 [1]: 11.6 µM [falling, single point]

Structure (SMILES): CCOC(=O)C1=C(CC)Nc2ccccc2N/C1=N\S(=O)(=O)c1ccc2ccccc2c1
- cell number change: 31.7%

Structure (SMILES): COc1ccc(CC(=O)Nc2ccc(N3CCCC3)c(C)c2)cc1
- cell number change: 7.66%
- AC50 [1]: 29.1 µM [rising, single point]

Structure (SMILES): CN(C)C=NC(=O)c1ccc(N2CCN(c3ncc(C(F)(F)F)cc3Cl)CC2)cc1
- cell number change: -23.2%
- AC50 [2]: 0.517 µM [rising, single point]
- AC50 [1]: 0.184 µM [falling, full curve, poor fit]

Structure (SMILES): CS(=O)(=O)N1CCN(c2ccc(Cl)cc2[N+](=O)[O-])CC1
- cell number change: -22.7%
- AC50 [2]: 0.82 µM [falling, full curve]
- AC50 [1]: 0.82 µM [falling, partial curve, poor fit]

Structure (SMILES): COc1ccc(CCC(C(O)C(F)(F)F)S(=O)c2ccccc2)cc1 (configuration not stated)
- AC50 [1]: 0.731 µM [falling, single point]

Structure (SMILES): CSc1nnc(-c2ccc(S(=O)(=O)N3CCCC3)cc2)n1C
- cell number change: 7.74%
- AC50 [1]: 18.4 µM [rising, single point]

Structure (SMILES): Cc1ccc(-c2csc3ncnc(-n4nnc5ccccc54)c23)cc1C
- cell number change: -2.84%
- AC50 [1]: 0.259 µM [falling, full curve, poor fit]

Structure (SMILES): COC(=O)c1cccc(NC(=O)c2ccc3c(c2)C(=O)N(Cc2cccnc2)C3=O)c1C
- cell number change: 11.9%
- AC50 [1]: 29.1 µM [rising, single point]

Structure (SMILES): CC(=O)Nc1ccc(NC(=O)CCCCCn2nnc3ccccc3c2=O)cc1
- cell number change: 78%
- AC50 [2]: 6.51 µM [rising, partial curve]
- AC50 [1]: 3.66 µM [rising, full curve]

Structure (SMILES): COc1ccc(/C=C/C(=O)OCC(=O)Nc2cc3oc4ccccc4c3cc2OC)cc1
- cell number change: 6.53%
- AC50 [2]: 3.55 µM [falling, single point]
- AC50 [1]: 3.16 µM [falling, single point]

Structure (SMILES): c1ccc2c(NCCc3c[nH]c4ccccc34)c3ccccc3nc2c1
- cell number change: -55.9%
- AC50 [2]: 29.1 µM [falling, single point]
- AC50 [1]: 29.1 µM [falling, single point]

Structure (SMILES): Cc1cc(C)[n+](-c2ccc(Oc3ccccc3)c(S(=O)(=O)[O-])c2)[nH]1
- cell number change: -24%
